# Assay results reported in US20210120813A1, “INHIBITORS OF THE SHIKIMATE PATHWAY” (PEPTICOM LTD., priority 2018, published 2021).
# Read-outs that look alike come from different tables or passages of the source. Some entries share one result that the patent states for a list of compounds.
# Test system: EPSPS (TIPS mutant) from common wheat
# Format: cell-based, Triticum Aestivum
Compound,"ability of rescued AB2829 bacteria cells (EPSPS TIPS) to grow on M9 minimal media (20 mM, 40 h, 0.1% rhamnose)",ability of rescued AB2829 bacteria cells (EPSPS TIPS) to grow on M9 minimal media
"O=C(O)c1cccc(C(=O)O)c1O [Compound 5, 2-Hydroxy-1,3-benzenedicarboxylic acid]",modulate EPSPS enzymatic activity,–
"O=C(O)c1cc([N+](=O)[O-])c(F)c(C(F)(F)F)c1 [Compound 14, 4-Fluoro-3-nitro-5-(trifluoromethyl)benzoic acid]",modulate EPSPS enzymatic activity,–
"Nc1cc(O)c([N+](=O)[O-])cc1C(=O)O [Compound 4, 2-Amino-4-hydroxy-5-nitrobenzoic acid]",modulate EPSPS enzymatic activity,–
"COc1ccc(C(=O)O)cc1O [Compound 2, 3-Hydroxy-4-methoxybenzoic acid]",modulate EPSPS enzymatic activity,–
"O=C(O)c1cccc(O)c1O [Compound 3, 2,3-Dihydroxybenzoic acid]",modulate EPSPS enzymatic activity,–
"CNc1ccc([N+](=O)[O-])cc1C(=O)O [Compound 8, -(Methylamino)-5-nitrobenzoic acid]",modulate EPSPS enzymatic activity,–
"O=C(O)c1ccc(O)c([N+](=O)[O-])c1 [Compound 10, 4-Hydroxy-3-nitrobenzoic acid]",modulate EPSPS enzymatic activity,–
"COC(=O)c1cc([N+](=O)[O-])cc([N+](=O)[O-])c1 [Compound 12, 3,5-Dinitrobenzoic acid methyl ester]",–,modulate EPSPS enzymatic activity
"O=C1NC(=O)c2c1ccc(O)c2O [Compound 13, 4,5-Dihydroxyisoindoline-1,3-dione]",modulate EPSPS enzymatic activity,–
"O=C(O)c1cc([N+](=O)[O-])cc([N+](=O)[O-])c1O [Compound 6, 2-Hydroxy-3,5-dinitrobenzoic acid]",–,modulate EPSPS enzymatic activity
"O=C(O)c1cc([N+](=O)[O-])cc([N+](=O)[O-])c1 [Compound 11, 3,5-Dinitrobenzoic acid]",–,modulate EPSPS enzymatic activity
"O=C(O)c1cc(C(F)(F)F)cc([N+](=O)[O-])c1F [Compound 16, 2-Fluoro-3-nitro-5-(trifluoromethyl)benzoic acid]",modulate EPSPS enzymatic activity,–
"O=C(O)c1cc([N+](=O)[O-])cc(C(F)(F)F)c1 [Compound 15, 3-Nitro-5-(trifluoromethyl) benzoic acid]",modulate EPSPS enzymatic activity,–
"COc1c(C(=O)O)ccc([N+](=O)[O-])c1O [Compound 1, 3-Hydroxy-2-methoxy-4-nitrobenzoic acid]",modulate EPSPS enzymatic activity,–
"Nc1ccc([N+](=O)[O-])cc1C(=O)O [Compound 7, 2-Amino-5-nitrobenzoic acid]",modulate EPSPS enzymatic activity,–
